Results from patent US20250129170A1.
These are yes or no findings as the source states them, for the method shown. Some results given as binding are weak or reduced against the parent protein; the word gives no strength.

Amino acid sequences for entries named in this document (tags omitted). A change or cut given only in a name is not applied to a line headed by its entry. Residues count along the entry.
UniProt P32927, residues 17-443: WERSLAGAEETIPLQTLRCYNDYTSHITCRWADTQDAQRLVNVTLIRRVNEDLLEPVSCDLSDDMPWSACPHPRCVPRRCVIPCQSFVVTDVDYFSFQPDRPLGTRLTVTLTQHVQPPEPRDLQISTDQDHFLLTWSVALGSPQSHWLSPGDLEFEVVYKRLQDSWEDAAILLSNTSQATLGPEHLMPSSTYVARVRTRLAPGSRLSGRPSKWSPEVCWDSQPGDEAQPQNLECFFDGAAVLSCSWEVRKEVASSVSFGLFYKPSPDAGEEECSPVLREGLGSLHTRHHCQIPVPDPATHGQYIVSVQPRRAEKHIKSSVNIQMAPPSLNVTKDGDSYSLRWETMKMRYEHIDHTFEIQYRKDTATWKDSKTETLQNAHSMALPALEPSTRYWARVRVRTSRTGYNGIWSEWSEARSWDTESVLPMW
UniProt P19235, residues 25-250: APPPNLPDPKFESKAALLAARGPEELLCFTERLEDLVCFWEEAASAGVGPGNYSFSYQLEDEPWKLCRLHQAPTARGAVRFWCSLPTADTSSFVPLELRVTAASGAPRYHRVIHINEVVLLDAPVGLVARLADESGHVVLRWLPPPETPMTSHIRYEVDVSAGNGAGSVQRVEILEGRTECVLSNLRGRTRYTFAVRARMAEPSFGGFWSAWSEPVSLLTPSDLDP

Experiments:
[1] = biological target: hCD131-Fc (IME021, inhouse) (human) (UniProt P32927); assay: B-cell sorting with labelled hCD131-Fc, then single-cell sequencing
[2] = biological target: hCD131-Fc (IME021, inhouse) (human) (UniProt P32927); assay: member of Table 6 (words from the table's title); B-cell sorting with labelled hCD131-Fc, then single-cell sequencing
[3] = biological target: hCD131-Fc (IME021, inhouse) (human) (UniProt P32927); assay: B-cell sorting, labelled hEPOR-Fc and hCD131-Fc
[4] = biological target: recombinant hEPOR-Fc (SinoBiological, Cat #10707-H02H) (human) (UniProt P19235); assay: B-cell sorting, labelled hEPOR-Fc and hCD131-Fc

Binder | binding [1] | binding [2] | binding [3] | binding [4]
anti-CD131 antibody clonotype272 (Table 6) (antibody, V domains shown) VH: QVQLVQSGAEVKKPGASVKVSCKASGYTFTSYDINWVRQATGQGLEWMGWLNPKNGYTGYSHKFQGRVTMTRNTSISTAYMELSSLRSEDAAVYFCARRGDFWSGYYSTSQNIVIHWFDSWGLGTLVTVSS VL: QSVLTQPPSVSGAPGQRVTISCTGSSSNIGAGYDVHWYQQLPGTAPKLLIYGNSNRPSGVPDRFSGSKSGTSASLAITGLQAEDEADYYCQSYDSSLSGSVFGGGTKLTVL | binds | binds |  | 
clonotype250 (EPOR/CD131 binder, Table 8) (antibody, V domains shown) VH: QVQLVQSGAEVKKPGASVKVSCKASGYTFTSYYMHWVRQAPGQGLEWMGIINPSGGSTSYAQKFQGRVTMTRDTSTSTVYMELSSLRSEDTAVYYCARGLRRDWFDPWGQGTLVTVSS VL: QSALTQPASVSGSPGQSITISCTGTSSDVGGYNYVSWYQQHPGKAPKLMIYEVSNRPSGVSNRFSGSKSGNTASLTISGLQAEDEADYYCSSYTSSSTWVFGGGTKLTVL |  |  | binds | binds
clonotype252 (EPOR/CD131 binder, Table 8) (antibody, V domains shown) VH: QVQLVESGGGVVQPGRSLRLSCAASGFTFSNYGMHWVRQAPGKGLDWVAVIWYDGNNEYYADSVKDRFTISRDNSQNTLYLQMNSLRAEDRAVYYCVRGGVGDGFDMWGQGTMVTVSS VL: QSALTQPASVSGSPGQSITISCTGTSSDVGGYNYVSWYQQHPGKVPKLMIYEVSNRPSGVSNRFSGSKSGNTASLTISGLQAEDEADYYCISYTNTNTRVFGGGTKLTVL |  |  | binds | binds
clonotype244 (EPOR/CD131 binder, Table 8) (antibody, V domains shown) VH: QVQLVQSGAEVKKPGASVKVSCKASGYTFTNYGISWVRQAPGQGLEWMGWISAYNGNTNYAQNLQGRVTMTTDTSTSTAYMELRSLRSDDTAVYYCARPLSGTLDNWGQGTLVTVSS VL: QSALTQPASVSGSPGQSITISCTGTSSDVGGYNYVSWYQQHPGKAPKLMIYDVSKRPSGVSNRFSGSKSGNTASLTISGLQAEDEADYYCCSYAGRSTLGIDWVFGGGTKLTVR |  |  | binds | binds

Results, then the binder that gave them:

binding [1] | binding [2] | binding [3] | binding [4] | Binder
binds | binds |  |  | anti-CD131 antibody clonotype261 (Table 6) (antibody, V domains shown) VH: EVQLVESGEGLVKPGGSLRLSCVASGFDFTNAWMSWVRQAPGRGLEWVGRIKSKTDGGSIDYAAPVKGRFTISRDDSKTTLYLQMTSLRTEDTAVYYCSTSPYYDFWSGYYGYIDYWGQGTLVTVSS VL: QSVLTQPPSVSGAPGQRVTISCTGSSSNIGAGYAVHWYQQFPGIAPKLLIYGNINRPSGVPDRFSGSKSDTSASLAITGLQAEDEADYYCQSFDSSLSGVMFGGGTKLTVL
binds | binds |  |  | anti-CD131 antibody clonotype263 (Table 6) (antibody, V domains shown) VH: QLQLQESGPGLVKPSETLSLTCTVSGGSISSSSYYWGWIRQPPGKGLEWIGSIYYSGSTYYNPSLKSRVTISVDTSKNQFSLKLSSVTAADTAVYYCARHAAAGGWFDPWGQGTLVTVSS VL: QAVLTQPASLSASPGASASLTCTLRSGINVGTYRIYWYQQKPGSPPQYLLRYKSDSDKQQGSGVPSRFSGSKDASANAGILLISGLQSEDEADYYCMIWHSSAVVFGGGTKLTVL
 |  | binds | binds | clonotype255 (EPOR/CD131 binder, Table 8) (antibody, V domains shown) VH: EVQLVESGGGLVKPGGSLRLSCAASGFTFSSYSMNWVRQAPGKGLEWVSSISSSSSYIYYADSVKGRFTISRDNAKNSLYLQMNSLRAEDTAVYYCARDSAYYTFDYWGQGTLVTVSS VL: QSALTQPPSASGSPGQSVTISCTGTSSDVGGYNYVSWYQQHPGKAPKLMIYEVSKRPSGVPDRFSGSKSGNTASLTVSGLQAEDEADYYCSSYAGSNNFWVFGGGTKLTVL
 |  | binds | binds | clonotype249 (EPOR/CD131 binder, Table 8) (antibody, V domains shown) VH: QVQLVQSGAEVEKPGASVKVSCKASGYTFTSYDIYWVRQATGQGLEWMGWMIPNSGNTGYAQRFEDRVTMTRSTSMNTAYMELNSLRSEDTAVYYCARGDWAWSFDLWGRGTLVTVSS VL: QSALTQPASVSGSPGQSITISCTGTSSDVGGYNYVSWYQQHPGKAPKLMIYEVSHRPSGVSNRFSGSKSGNTASLTISGLQAEDESDYYCSSYTSSSSLVFGGGTKLTVL
binds | binds |  |  | anti-CD131 antibody clonotype255 (Table 6) (antibody, V domains shown) VH: EVRLVESGGGLVKPGGSLRLSCAASGFIFSSYSMTWVRQAPGKGLEWVSSISGSSSFVKYGDSVKGRFTISRDNAKNSLYLQMNSLRAEDTAVYYCAREGVLCSGGSCYREIFDYWGQVTLVTVSS VL: SSELTQDPAVSVALGQTVRITCQGDSLRSYYASWYQQKPGQAPVLVIYGKNNRPSGIPDRFSGSSSGNTASLTITGAQAEDEADYYCNSRDSSGNHLVFGGGTKLTVL
